Holding throughout (assay): co-IP; purified recombinant FLAG-RLR (150 ng) incubated with WT or SD TRBP (50 ng) without RNA in whole-cell extract buffer (50 mM Tris-HCl pH 8.0, 280 mM NaCl, 0.5% NP-40, 0.2 mM EGTA, 2 mM EDTA, 1 mM DTT, 1 mM MgCl2); FLAG-RLR isolated on FLAG agarose beads; western blot with FLAG and TRBP antibodies; TRBP without RLR as negative control; both purified
On the technique in general: In western blotting, separated proteins are transferred to a membrane and probed.

Assay [1] has as its target T1, retinoic acid inducible gene-I (RIG-I), FLAG-tagged, purified recombinant, O95786.
T1 chain: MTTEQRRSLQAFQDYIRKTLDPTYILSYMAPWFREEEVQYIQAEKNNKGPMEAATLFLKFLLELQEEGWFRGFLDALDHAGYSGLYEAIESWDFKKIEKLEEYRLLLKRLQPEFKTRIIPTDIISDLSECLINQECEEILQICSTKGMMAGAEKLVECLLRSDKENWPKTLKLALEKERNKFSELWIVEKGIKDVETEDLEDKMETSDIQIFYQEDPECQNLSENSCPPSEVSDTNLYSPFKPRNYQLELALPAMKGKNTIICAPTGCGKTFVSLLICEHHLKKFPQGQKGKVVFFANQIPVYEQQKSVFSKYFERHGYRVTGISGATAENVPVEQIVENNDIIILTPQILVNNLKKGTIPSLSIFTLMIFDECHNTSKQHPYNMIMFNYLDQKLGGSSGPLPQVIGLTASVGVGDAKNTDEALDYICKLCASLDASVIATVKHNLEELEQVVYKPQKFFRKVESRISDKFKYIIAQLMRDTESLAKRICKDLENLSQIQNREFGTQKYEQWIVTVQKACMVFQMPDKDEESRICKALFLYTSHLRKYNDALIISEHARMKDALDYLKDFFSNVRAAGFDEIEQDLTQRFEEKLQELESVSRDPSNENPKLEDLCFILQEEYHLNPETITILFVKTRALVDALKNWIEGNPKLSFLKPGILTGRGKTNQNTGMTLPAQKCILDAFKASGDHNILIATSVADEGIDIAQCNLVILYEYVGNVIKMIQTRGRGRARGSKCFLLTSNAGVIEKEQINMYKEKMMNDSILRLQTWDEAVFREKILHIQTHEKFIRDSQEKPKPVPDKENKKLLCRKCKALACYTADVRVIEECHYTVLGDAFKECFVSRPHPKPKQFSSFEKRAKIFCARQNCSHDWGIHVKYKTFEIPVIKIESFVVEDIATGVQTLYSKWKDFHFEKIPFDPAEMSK
Particulars: remark: other sources report otherwise.

In assay [2] the target is T2, melanoma differentiation associated-5 (MDA5), FLAG-tagged, purified recombinant, Q9BYX4.
T2 chain: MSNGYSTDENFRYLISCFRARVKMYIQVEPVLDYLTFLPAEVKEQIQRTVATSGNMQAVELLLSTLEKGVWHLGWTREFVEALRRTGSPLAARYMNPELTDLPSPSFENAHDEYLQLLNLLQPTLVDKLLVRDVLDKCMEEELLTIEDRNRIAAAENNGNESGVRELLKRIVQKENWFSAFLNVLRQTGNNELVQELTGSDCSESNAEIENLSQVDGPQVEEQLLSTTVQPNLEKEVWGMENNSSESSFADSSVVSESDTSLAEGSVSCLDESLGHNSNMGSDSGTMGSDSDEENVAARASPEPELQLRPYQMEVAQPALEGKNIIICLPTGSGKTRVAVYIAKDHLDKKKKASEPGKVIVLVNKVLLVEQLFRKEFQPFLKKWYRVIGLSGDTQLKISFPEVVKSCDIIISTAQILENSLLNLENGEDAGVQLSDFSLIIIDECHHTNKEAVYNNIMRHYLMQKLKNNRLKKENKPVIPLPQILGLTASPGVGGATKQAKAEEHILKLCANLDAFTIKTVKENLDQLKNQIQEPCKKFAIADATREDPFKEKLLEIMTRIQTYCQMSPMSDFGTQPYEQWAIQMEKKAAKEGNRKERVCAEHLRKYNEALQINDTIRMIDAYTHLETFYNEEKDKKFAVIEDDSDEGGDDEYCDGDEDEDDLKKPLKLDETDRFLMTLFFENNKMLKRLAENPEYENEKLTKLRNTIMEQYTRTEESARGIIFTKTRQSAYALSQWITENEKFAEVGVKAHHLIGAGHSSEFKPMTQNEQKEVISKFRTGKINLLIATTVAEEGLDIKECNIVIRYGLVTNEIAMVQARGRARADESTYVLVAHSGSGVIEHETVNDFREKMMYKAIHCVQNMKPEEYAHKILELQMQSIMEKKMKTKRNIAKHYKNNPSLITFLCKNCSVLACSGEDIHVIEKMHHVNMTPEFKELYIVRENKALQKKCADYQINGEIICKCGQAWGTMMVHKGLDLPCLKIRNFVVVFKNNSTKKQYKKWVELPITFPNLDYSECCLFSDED
Particulars: remark: other sources report otherwise.

Assay [3] has as its target T3, laboratory of genetics and physiology 2 (LGP2), FLAG-tagged, purified recombinant (UniProt Q96C10).
T3 sequence: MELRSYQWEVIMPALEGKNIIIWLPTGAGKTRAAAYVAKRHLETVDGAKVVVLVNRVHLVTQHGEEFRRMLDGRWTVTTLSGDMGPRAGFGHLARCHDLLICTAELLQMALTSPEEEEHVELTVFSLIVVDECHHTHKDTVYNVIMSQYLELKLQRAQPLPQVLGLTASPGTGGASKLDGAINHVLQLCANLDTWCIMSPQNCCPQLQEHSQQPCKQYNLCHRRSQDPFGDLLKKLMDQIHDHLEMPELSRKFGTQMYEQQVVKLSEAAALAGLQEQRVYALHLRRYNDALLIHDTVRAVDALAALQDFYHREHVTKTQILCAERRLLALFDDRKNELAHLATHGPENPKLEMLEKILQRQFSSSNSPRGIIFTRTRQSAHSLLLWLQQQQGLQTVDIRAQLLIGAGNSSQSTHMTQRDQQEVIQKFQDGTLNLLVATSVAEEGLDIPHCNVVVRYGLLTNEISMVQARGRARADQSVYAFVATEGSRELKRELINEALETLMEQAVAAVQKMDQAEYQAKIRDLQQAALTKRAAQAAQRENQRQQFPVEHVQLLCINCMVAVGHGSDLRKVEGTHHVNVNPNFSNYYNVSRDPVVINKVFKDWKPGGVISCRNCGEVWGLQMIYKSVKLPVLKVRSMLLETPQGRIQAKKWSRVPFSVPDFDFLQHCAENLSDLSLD

No constants are given. Whether binding was seen depends on the method and setting. Some binding calls cover weakened binding; strength is not graded here. Sequences can lack the tags named with a protein.

B1: transactivation response RNA-binding protein (TRBP), recombinant, nonphosphorylated wild type, Q15633 1-366 (protein)
chain: MSEEEQGSGTTTGCGLPSIEQMLAANPGKTPISLLQEYGTRIGKTPVYDLLKAEGQAHQPNFTFRVTVGDTSCTGQGPSKKAAKHKAAEVALKHLKGGSMLEPALEDSSSFSPLDSSLPEDIPVFTAAAAATPVPSVVLTRSPPMELQPPVSPQQSECNPVGALQELVVQKGWRLPEYTVTQESGPAHRKEFTMTCRVERFIEIGSGTSKKLAKRNAAAKMLLRVHTVPLDARDGNEVEPDDDHFSIGVGSRLDGLRNRGPGCTWDSLRNSVGEKILSLRSCSLGSLGALGPACCRVLSELSEEQAFHVSYLDIEELSLSGLCQCLVELSTQPATVCHGSATTREAARGEAARRALQYLKIMAGSK
With B1, the binding entry in assay [1] and in assay [2] was “binds” in each case.

B2: transactivation response RNA-binding protein (TRBP), recombinant, nonphosphorylated wild type (protein, UniProt Q15633 1-366)
chain: MSEEEQGSGTTTGCGLPSIEQMLAANPGKTPISLLQEYGTRIGKTPVYDLLKAEGQAHQPNFTFRVTVGDTSCTGQGPSKKAAKHKAAEVALKHLKGGSMLEPALEDSSSFSPLDSSLPEDIPVFTAAAAATPVPSVVLTRSPPMELQPPVSPQQSECNPVGALQELVVQKGWRLPEYTVTQESGPAHRKEFTMTCRVERFIEIGSGTSKKLAKRNAAAKMLLRVHTVPLDARDGNEVEPDDDHFSIGVGSRLDGLRNRGPGCTWDSLRNSVGEKILSLRSCSLGSLGALGPACCRVLSELSEEQAFHVSYLDIEELSLSGLCQCLVELSTQPATVCHGSATTREAARGEAARRALQYLKIMAGSK
For B2, the binding result in assay [3] is on record as “binds”.

The values above are taken from article PMC10170298.
